For this assay, the target named is biotinylated full-length Etf-1 protein (E. chaffeensis) (UniProt Q2GG12). As to the kind of experiment: pull-down; both purified.

Chains of the proteins cited; added tags and fusions are not shown.
UniProt Q2GG12: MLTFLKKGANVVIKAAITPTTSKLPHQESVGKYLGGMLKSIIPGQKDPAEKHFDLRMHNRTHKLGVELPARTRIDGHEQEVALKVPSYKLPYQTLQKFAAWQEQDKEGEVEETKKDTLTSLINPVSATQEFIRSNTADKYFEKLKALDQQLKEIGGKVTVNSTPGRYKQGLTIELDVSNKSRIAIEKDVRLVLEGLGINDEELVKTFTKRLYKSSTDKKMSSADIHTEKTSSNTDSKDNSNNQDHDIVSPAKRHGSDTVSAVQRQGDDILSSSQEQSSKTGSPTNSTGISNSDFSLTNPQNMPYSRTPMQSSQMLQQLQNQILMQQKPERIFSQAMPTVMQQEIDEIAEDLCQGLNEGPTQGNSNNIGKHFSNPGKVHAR
UniProt Q14457: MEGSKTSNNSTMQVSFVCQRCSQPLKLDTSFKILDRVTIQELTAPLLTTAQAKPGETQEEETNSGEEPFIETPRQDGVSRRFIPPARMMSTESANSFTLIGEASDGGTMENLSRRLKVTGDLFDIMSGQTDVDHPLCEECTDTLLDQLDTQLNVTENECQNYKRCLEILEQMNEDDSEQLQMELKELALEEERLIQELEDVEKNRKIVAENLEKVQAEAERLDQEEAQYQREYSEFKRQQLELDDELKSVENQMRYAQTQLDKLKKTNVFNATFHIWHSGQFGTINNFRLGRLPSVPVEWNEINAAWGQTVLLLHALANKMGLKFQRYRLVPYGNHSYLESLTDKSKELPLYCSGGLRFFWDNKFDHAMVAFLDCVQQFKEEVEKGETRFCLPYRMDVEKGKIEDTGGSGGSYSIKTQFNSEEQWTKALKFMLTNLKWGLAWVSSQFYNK

These are yes or no findings as the source states them, for the method shown. Some entries that bind do so weakly or less than the wild type.

As to “recombinant full-length BECN1 protein (Beclin 1) (from UniProt Q14457 1-450)”, the binding result is recorded as “binds”.

The values above are taken from PMC9982066, “Inhibition of Ehrlichia chaffeensis infection by cell-permeable macrocyclic peptides that bind type IV secretion effector Etf-1” (PNAS Nexus, 2023).
